According to PubChem BioAssay AID2685 (National Center for Advancing Translational Sciences (NCATS), 2010):
Some of the results follow. Further columns of the screen follow, without active or inactive calls. Compounds called inactive in the main read-out are mostly missing here. Potencies come from curve fits of mixed quality, noted in brackets.

Assay: qHTS Assay for Lipid Storage Modulators in Drosophila S3 Cells;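 for cell number change: cells counted by Cell Tracker Red CMTPX staining in the red channel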
Conditions: BODIPY lipid droplet fluorescence, 18-24 h; for cell number change: measured here: cell count max response, cells fed with added oleic acid
In short: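 Laser-scanning cytometry quantifies lipid droplet accumulation (500–530 nm total intensity; droplet/cell object ratio) in oleic acid-fed (400 uM added) Drosophila S3 cells treated with a concentration series. 20 uM Triacsin C defined 100% inhibition.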

[1] = measured here: lipid fluorescence (Fed channel) AC50, cells fed with added oleic acid
[2] = measured here: cell number channel AC50, cells fed with added oleic acid

SMILES	cell number change [%]	AC50 [1]	AC50 [2]
O=C1CCCCN1CCC(=O)N1CCCC(Nc2ccccc2)C1 (configuration not stated)	12.6	20.6 µM [falling, partial curve]	
Clc1ccc(/C=N/Nc2nnc(-c3ncc[nH]3)c3ccccc23)cc1	-13.9	29.1 µM [falling, single point]	
Cc1cc(C)nc(SCC(=O)NC2=NN=C(c3ccc(Br)cc3)CS2)n1	-23.7	23.1 µM [falling, single point]	
Cc1ccn2cc(CNC(=O)c3ccc(Br)o3)nc2c1	69		2.06 µM [rising, full curve]
CCOC(=O)Cc1csc(NC(=O)c2ccco2)n1	128		29.1 µM [rising, single point]
CCc1ccc(C(=O)NC(=S)NCc2cccnc2)cc1	-19.5		
O=C(COc1ccc(S(=O)(=O)N2CCOCC2)cc1)NCCCn1ccnc1	1.9	29.1 µM [falling, single point]	
Cc1nn2c(-n3ccnc3)c3c(nc2c1-c1ccccc1)CCC3	32.7		32.6 µM [rising, single point]
Cc1ccc(CN(C)C(=O)c2ccc(NS(=O)(=O)c3ccc4[nH]c(=O)[nH]c4c3)cc2)cc1	-50	2.31 µM [rising, single point]	25.9 µM [falling, single point]
O=C(Cn1cnc([N+](=O)[O-])c1)NCc1ccc(F)cc1	-14.9	6.51 µM [rising, single point]	
Nc1nc(-c2ccc(Cl)cc2)nn1C(=O)c1cccs1	42.7		18.4 µM [rising, single point]
COc1ccc(NC(=O)NCCc2c[nH]c3ccccc23)c(OC)c1	18.9		
Cc1cc(C)c2cccc(N)c2n1	5.6	0.82 µM [falling, full curve, poor fit]	
Cc1ccc(NC(=O)CC2OC(=O)c3ccccc32)cc1S(=O)(=O)N1CCCCCC1 (configuration not stated)	24		0.146 µM [falling, full curve, poor fit]
CC(=O)N1CC2([N+](=O)[O-])CN(C(C)=O)CC([N+](=O)[O-])(C1)C2(C)C	44		20.6 µM [rising, single point]
CC(=O)NC(CC(=O)O)C(=O)O (configuration not stated)	-15.6	3.66 µM [rising, single point]	
COc1ccccc1/C=C/C(=O)/C=C/c1ccccc1O	1.49	29.1 µM [falling, single point]	
Cc1ccccc1C(=O)Nc1c(C)[nH]c(=O)[nH]c1=O	13.9		
Cc1cccc(C)c1NC(=O)C(Cl)=C(Cl)Cl	10.1		
CC(C)CNC(=O)Nc1ccccc1F	163	16.4 µM [rising, partial curve]	14.6 µM [rising, partial curve]
Cc1cc(SCC(=O)OCC(=O)NC(C)c2ccccc2)c(C)cc1Br (configuration not stated)	-83.3		18.4 µM [falling, single point]

SMILES	cell number change [%]	AC50 [1]	AC50 [2]
CC(C)(C)C(=O)CNCC(=O)C(C)(C)C	-76.8	6.51 µM [falling, partial curve, poor fit]	32.6 µM [falling, partial curve, poor fit]
CC(C)OC(=O)c1cc2c(ccn2-c2ccc(F)cc2)n1CC(=O)N1CCN(C(=O)c2ccco2)CC1	-27		
Cc1ccc(C)c(S(=O)(=O)n2cnc3ccccc32)c1	3.52		
O=C(Nc1ccc(S(=O)(=O)N2CCOCC2)cc1)c1ccc([N+](=O)[O-])s1	-36.4	20.6 µM [falling, partial curve, poor fit]	2.31 µM [falling, full curve]
CCc1ccc(OC(=O)CN2C(=O)c3ccccc3C2=O)cc1	3.23		
Cn1c(=O)[nH]c(=O)c2c1nc(Br)n2CCCSc1nc2ccccc2o1	94	2.91 µM [rising, partial curve]	3.26 µM [rising, partial curve]
Cc1cccc(N2C(=O)N3[C@H](c4ccc(F)cc4)[C@@H]4C(=O)N(C5CCCCC5)C(=O)[C@@H]4[C@]3(Cc3ccccc3)C2=O)c1	27.8	3.26 µM [rising, full curve]	
NC(=O)c1ccc(NC(=O)COC(=O)CCCc2c[nH]c3ccccc23)cc1	-33.6		14.6 µM [falling, single point]
Cc1ccccc1N(CC(=O)Nc1ccc(S(=O)(=O)N2CCOCC2)cc1)S(C)(=O)=O	-16.5	5.17 µM [falling, partial curve, poor fit]	
Cc1ccc(N2C(=O)c3sc4nnc(C)c(=O)n4c3C2=O)cc1			0.58 µM [rising, single point]
O=S(=O)(NCC1CCCO1)c1ccc(Br)cc1 (configuration not stated)	1.05	6.51 µM [rising, single point]	
O=C(CN1C(=O)NC2(CCCC2)C1=O)Nc1cc(Cl)ccc1N1CCCCC1	-1.47	29.1 µM [falling, single point]	0.00461 µM [rising, full curve, poor fit]
CCNc1nc(OC)nc(SCC(N)=O)n1	5.87	0.651 µM [falling, partial curve, poor fit]	
O=c1[nH]c(C2CCCN(S(=O)(=O)c3ccccc3F)C2)nc2c1nnn2Cc1ccccc1Cl (configuration not stated)	3.04		
CCn1c2ccccc2c2cc(/C=N/NC(=O)c3ccccc3)ccc21	-1.69	0.00517 µM [falling, full curve, poor fit]	
CCC1(C)Cc2[nH]c(=O)c(C#N)cc2CO1 (configuration not stated)	4.72	9.2 µM [rising, partial curve]	
CC(Nn1cnnc1)c1cc(Cl)ccc1O (configuration not stated)	10.9	3.66 µM [falling, single point]	
CCCOc1ccc(-c2c(C(=O)N/N=C/c3ccco3)nnn2-c2nonc2N)cc1	11		
CC1(C)COC(/C=C/c2cccc([N+](=O)[O-])c2)=N1	-19.5	20.6 µM [falling, partial curve]	
Cc1nn(Cc2c(F)c(F)c(F)c(F)c2F)c(C)c1NC(=O)c1ccnn1C	2.89		

Record cards (already shown):
CC(Nn1cnnc1)c1cc(Cl)ccc1O (configuration not stated) is listed with cell number change [%]: 10.9; AC50 [1]: 3.66 µM [falling, single point]
CCCOc1ccc(-c2c(C(=O)N/N=C/c3ccco3)nnn2-c2nonc2N)cc1 is listed with cell number change [%]: 11
